Measured values as given in patent EP3736570A1, “METHOD FOR THE DIAGNOSIS, SUB-CLASSIFICATION AND PROGNOSIS OF ACUTE KIDNEY INJURY BY DETECTING CCT7” (Fundación Instituto de Estudios de Ciencias de la Salud de …, priority 2019, dated 2020).

Tested on: MCT cells
Test: Western blot / 2D proteomic analysis of culture medium and cell extracts
Conditions: cisplatin 0-30 µM

**Q.** What does the source list for `N.N.[Cl][Pt][Cl]` [cisplatin]?
**A.** TCP1-eta inside the cells (MCT cell extracts): did not accumulate inside the cells; t-gelsolin in the culture medium (MCT cells, 9 and 18 h): not detected in the culture medium
